Series [1] in a line: pH, redox and conductivity of pulp suspension after incubation. To be noted: pasteurized 1 h +80° C., 50 mg/l monochloramine then 10 mg/l daily, 4 d at +40° C., n = 6.
Series [2] in a line: Properties of handsheets prepared from treated pulp.
The mark [3] stands for this setting: Example 5, treated compared to non-treated.
Where [4] appears, read: handsheet from treated pulp, Example 5 (monochloramine, 4 d).

Here are results for 1 compound from patent publication US12686971B2, “Method of controlling enzymatic activities and tools related thereto” (KEMIRA OYJ, priority 2020, dated 2026).

As for `NCl` [MCA, monochloramine], in series [1], the “Redox, Average” value came out at 94 mV and the “pH, Average” value is reported as 6.3. Besides, in series [2] (setting [3]), the “SCT higher in the treated sample” value was “about 3.5%”, the “ash content higher in the treated sample” value is “about 8.8%”, the “tear strength higher in the treated sample” value was “more than 9%” and the “tensile strength better in the treated sample” value was “about 12%”. Moreover, in series [2] (setting [4]), the Ash content amounted to 4.35%, the SCT index worked out at 17.16 Nm/g, the Tear index worked out at 6.84 Nm^2/kg and the Tensile index came out at 30.92 Nm/g.
